Results are given in words; binding and its absence hold for the method and conditions named. In cells and extracts the contact can be indirect. A yes stands for co-enrichment or nearness to the bait. Other partners may have been found. Tags and fused reporters may be left off the sequences shown.
Target: T1, Flag-TULP2 (tubby-like protein 2 with Flag label) (UniProt P46686)
T1 sequence: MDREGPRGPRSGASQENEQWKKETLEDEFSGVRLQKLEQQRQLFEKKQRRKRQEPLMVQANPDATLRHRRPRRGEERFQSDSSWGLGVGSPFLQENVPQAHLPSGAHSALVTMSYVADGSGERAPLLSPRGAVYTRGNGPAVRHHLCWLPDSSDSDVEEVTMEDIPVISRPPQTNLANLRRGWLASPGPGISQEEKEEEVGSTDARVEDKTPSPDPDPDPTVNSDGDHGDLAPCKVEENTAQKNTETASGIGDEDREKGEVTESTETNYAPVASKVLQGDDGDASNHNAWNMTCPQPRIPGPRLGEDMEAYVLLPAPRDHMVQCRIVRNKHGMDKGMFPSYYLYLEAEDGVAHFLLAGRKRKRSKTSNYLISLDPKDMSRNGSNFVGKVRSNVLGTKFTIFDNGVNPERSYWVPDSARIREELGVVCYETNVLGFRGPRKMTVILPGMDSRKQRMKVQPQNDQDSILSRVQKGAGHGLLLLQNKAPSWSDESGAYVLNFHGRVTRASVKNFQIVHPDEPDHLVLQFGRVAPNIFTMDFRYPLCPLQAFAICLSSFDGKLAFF
Experiment: affinity purification with mass spectrometry; HEK293T cells transfected with the Flag-TULP2 overexpression plasmid (empty vector plasmid as control), collected 48 h after transfection for immunoprecipitation; immunoprecipitates analysed by mass spectrometry, MaxQuant search against the UniProt human proteome

The chains behind the UniProt entries cited, without tags or fusion partners.
UniProt P50990: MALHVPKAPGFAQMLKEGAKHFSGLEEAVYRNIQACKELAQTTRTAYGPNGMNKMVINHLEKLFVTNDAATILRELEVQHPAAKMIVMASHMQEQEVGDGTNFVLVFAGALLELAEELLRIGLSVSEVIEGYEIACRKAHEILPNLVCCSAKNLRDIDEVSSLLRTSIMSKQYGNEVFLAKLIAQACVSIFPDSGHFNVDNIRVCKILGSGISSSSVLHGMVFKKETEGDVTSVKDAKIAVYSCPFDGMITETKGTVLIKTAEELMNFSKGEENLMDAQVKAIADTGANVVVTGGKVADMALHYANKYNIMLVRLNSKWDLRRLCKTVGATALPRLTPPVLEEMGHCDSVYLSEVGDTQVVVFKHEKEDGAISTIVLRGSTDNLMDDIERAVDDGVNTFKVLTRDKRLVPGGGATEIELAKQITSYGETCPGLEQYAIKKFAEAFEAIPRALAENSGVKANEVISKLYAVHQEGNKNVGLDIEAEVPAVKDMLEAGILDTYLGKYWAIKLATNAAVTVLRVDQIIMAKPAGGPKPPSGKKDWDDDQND

binding: binds
Substance: CCT8 (T-complex protein 1 subunit theta), endogenous in HEK293T (from UniProt P50990 1-548)

Source: publication PMC7982829
